Patent US20100222269A1, “IMPROVED DERIVATIVES OF AMYLIN” (priority 2007, published 2010)
At least one peptide structure holds a part that was inferred or is arguable (an end, a ring closure or a residue). At least one compound was matched to its structure with a doubt left. Positions of bridges follow the written chain, without caps; N, C: chain ends. Residues, ends and D or L forms follow the SMILES beside them. *: point of attachment. C18 diacid = O=C(O)CCCCCCCCCCCCCCCCC(=O)*

Protein sequences, listed by entry. Tags and fused reporters are not part of them. Residues count along the entry.
UniProt O60896, 24-148: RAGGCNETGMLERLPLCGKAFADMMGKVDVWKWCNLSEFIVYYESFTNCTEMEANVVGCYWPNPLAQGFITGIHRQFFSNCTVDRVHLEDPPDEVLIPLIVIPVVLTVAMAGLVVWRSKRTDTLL
UniProt P30988, 25-474: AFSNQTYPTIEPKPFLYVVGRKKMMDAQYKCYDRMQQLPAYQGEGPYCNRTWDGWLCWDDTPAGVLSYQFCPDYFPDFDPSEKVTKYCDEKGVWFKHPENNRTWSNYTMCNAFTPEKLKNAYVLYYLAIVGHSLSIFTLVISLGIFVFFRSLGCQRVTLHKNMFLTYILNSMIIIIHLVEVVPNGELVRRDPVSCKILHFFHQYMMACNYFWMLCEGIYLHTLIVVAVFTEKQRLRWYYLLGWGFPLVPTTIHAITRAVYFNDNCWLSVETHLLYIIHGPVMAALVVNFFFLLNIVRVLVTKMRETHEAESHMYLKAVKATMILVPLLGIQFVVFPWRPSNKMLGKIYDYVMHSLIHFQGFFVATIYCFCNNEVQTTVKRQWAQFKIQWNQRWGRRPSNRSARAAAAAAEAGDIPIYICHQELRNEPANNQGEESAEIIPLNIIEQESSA

Target: T1, Amylin 3(a) receptor (human calcitonin receptor (CTa) with RAMP-3) (Homo sapiens, UniProt O60896+P30988)
T1 construct: expressed in transfected cells; host or cells: BHK570 (baby hamster kidney) cells, stably transfected, with CRE-luciferase reporter
Assay: Amylin luciferase assay (CRE-luciferase reporter in BHK Amylin 3(a)//CRE-luc cells)
Type: cell-based
Conditions: BHK570 cells with human calcitonin receptor (CTa), RAMP-3 and CRE-luciferase reporter; 4 hours incubation; read-out: Potency luciferase assay
Description: It has previously been published (Poyner D R et al 2002, Pharmacological Reviews 54(2) 233-246) that activation of Amylin receptors (coexpression of Calcitonin receptor and receptor activity modifying peptides RAMPs) by Amylin leads to an increase in the intracellular concentration of cAMP. Consequently, transcription is activated at promotors containing multiple copies of the cAMP response element (CRE). It is thus possible to measure Amylin activity by use of a CRE luciferase reporter gene introduced into BHK cells also expressing an Amylin receptor.
2. Construction of an Amylin 3(a)/CRE-luc Cell Line
A BHK570 cell line stably transfected with the human calcitonin receptor (CTa) and a CRE-responsive luciferase reportergene. The cell line was further transfected with RAMP-3, using standard methods. This turns the Calcitonin receptor into an Amylin 3(a) receptor. Methotrexate, Neomycin, and Hygromycin are selection markers for luciferase, the Calcitonin receptor, and RAMP-3, respectively.
3. Amylin Luciferase Assay
To perform activity assays, BHK Amylin 3(a)//CRE-luc cells were seeded in white 96 well culture plates at a density of about 20.000 cells/well. The cells were in 100 μl growth medium (DMEM with 10% FBS, 1% Pen/Strep, 1 mM Na-pyruvate, 250 nM Methotrexate, 500 μg/ml Neomycin, and 400 μg/ml Hygromycin). After incubation overnight at 37° C. and 5% CO2, the growth medium was replaced by 50 μl/well assay medium (DMEM (without phenol red), Glumamax™, 10% FBS, and 10 mM Hepes, pH 7,4). Further, 50 μl/well of standard or sample in assay buffer were added. After 4 hours incubation at 37° C. and 5% CO2, the assay medium with standard or sample were removed and replaced by 100 μl/well PBS. Further, 100 μl/well LucLite™ was added. The plates were sealed and incubated at room temperature for 30 minutes. Finally, luminescence was measured on a TopCounter (Packard) in SPC (single photon counting) mode.

| SMILES | EC50 |
| --- | --- |
| CC[C@H](C)[C@H](NC(=O)[C@@H]1CCCN1C(=O)CNC(=O)[C@H](Cc1ccccc1)NC(=O)[C@H](CC(N)=O)NC(=O)[C@H](CC(N)=O)NC(=O)[C@H](CO)NC(=O)[C@H](CO)NC(=O)[C@H](CCCNC(=N)N)NC(=O)[C@@H](NC(=O)[C@H](CC(C)C)NC(=O)[C@H](Cc1ccccc1)NC(=O)[C@H](CC(N)=O)NC(=O)[C@H](C)NC(=O)[C@H](CC(C)C)NC(=O)[C@H](CCCNC(=N)N)NC(=O)[C@H](CCC(N)=O)NC(=O)[C@@H](NC(=O)[C@H](C)NC(=O)[C@@H]1CSSC[C@H](NC(=O)[C@H](CCCCN)NC(=O)CCCCCCCCCCCCCCCCC(=O)O)C(=O)N[C@@H](CC(N)=O)C(=O)N[C@@H]([C@@H](C)O)C(=O)N[C@@H](C)C(=O)N[C@@H]([C@@H](C)O)C(=O)N1)[C@@H](C)O)C(C)C)C(=O)N[C@@H](CC(C)C)C(=O)N1CCC[C@H]1C(=O)N1CCC[C@H]1C(=O)N[C@H](C(=O)N[C@@H](CC(N)=O)C(=O)N[C@H](C(=O)NCC(=O)N[C@@H](CO)C(=O)N[C@@H](CC(N)=O)C(=O)N[C@H](C(=O)N[C@@H](Cc1ccc(O)cc1)C(N)=O)[C@@H](C)O)C(C)C)[C@@H](C)O [Example 21, N-alpha-(17-carboxyheptanoyl)-[Arg18]-pramlintide (1-37)] | 0.03 nM |
| CC(C)C[C@H](NC(=O)[C@H](CC(N)=O)NC(=O)[C@H](CC(N)=O)NC(=O)[C@H](CO)NC(=O)[C@H](CO)NC(=O)[C@H](CCCNC(=N)N)NC(=O)[C@@H](NC(=O)[C@H](CC(C)C)NC(=O)[C@H](Cc1ccccc1)NC(=O)[C@H](CC(N)=O)NC(=O)[C@H](C)NC(=O)[C@H](CC(C)C)NC(=O)[C@H](CCCNC(=N)N)NC(=O)[C@H](CCC(N)=O)NC(=O)[C@@H](NC(=O)[C@H](C)NC(=O)[C@@H]1CSSC[C@H](NC(=O)CCCCCCCCCCCCCCCCC(=O)O)C(=O)N[C@@H](CC(N)=O)C(=O)N[C@@H]([C@@H](C)O)C(=O)N[C@@H](C)C(=O)N[C@@H]([C@@H](C)O)C(=O)N1)[C@@H](C)O)C(C)C)C(=O)NCC(=O)N1CCC[C@H]1C(=O)N[C@H](C(=O)N[C@@H](CC(C)C)C(=O)N1CCC[C@H]1C(=O)N1CCC[C@H]1C(=O)N[C@H](C(=O)N[C@@H](CC(N)=O)C(=O)N[C@H](C(=O)NCC(=O)N[C@@H](CO)C(=O)N[C@@H](CC(N)=O)C(=O)N[C@H](C(=O)N[C@@H](Cc1ccc(O)cc1)C(N)=O)[C@@H](C)O)C(C)C)[C@@H](C)O)C(C)C [Example 24, N-alpha-(17-carboxyheptanoyl)-[Arg18,Leu23,Val26]-pramlintide (2-37)] | 0.1 nM |
| CC[C@H](C)[C@H](NC(=O)[C@@H]1CCCN1C(=O)CNC(=O)[C@H](Cc1ccccc1)NC(=O)[C@H](CC(N)=O)NC(=O)[C@H](CC(N)=O)NC(=O)[C@H](CO)NC(=O)[C@H](CO)NC(=O)[C@H](CCCNC(=N)N)NC(=O)[C@@H](NC(=O)[C@H](CC(C)C)NC(=O)[C@H](Cc1ccccc1)NC(=O)[C@H](CC(N)=O)NC(=O)[C@H](C)NC(=O)[C@H](CC(C)C)NC(=O)[C@H](CCCNC(=N)N)NC(=O)[C@H](CCC(N)=O)NC(=O)[C@@H](NC(=O)[C@H](C)NC(=O)[C@@H]1CSSC[C@H](NC(=O)[C@@H](N)CCCCN)C(=O)N[C@@H](CCCCNC(=O)CCCCCCCCCCCCCCCCC(=O)O)C(=O)N[C@@H]([C@@H](C)O)C(=O)N[C@@H](C)C(=O)N[C@@H]([C@@H](C)O)C(=O)N1)[C@@H](C)O)C(C)C)C(=O)N[C@@H](CC(C)C)C(=O)N1CCC[C@H]1C(=O)N1CCC[C@H]1C(=O)N[C@H](C(=O)N[C@@H](CC(N)=O)C(=O)N[C@H](C(=O)NCC(=O)N[C@@H](CO)C(=O)N[C@@H](CC(N)=O)C(=O)N[C@H](C(=O)N[C@@H](Cc1ccc(O)cc1)C(N)=O)[C@@H](C)O)C(C)C)[C@@H](C)O [Example 22, N-epsilon3-(17-carboxyheptanoyl)-[Lys3,Arg18]-pramlintide (1-37)] (H-KCK(C18 diacid)TATCATQRLANFLVRSSNNFGPILPPTNVGSNTY-NH2; disulfide 2-7; N-terminus and C-terminus assumed) | 0.06 nM |
| CC[C@H](C)[C@H](NC(=O)[C@@H]1CCCN1C(=O)CNC(=O)[C@H](Cc1ccccc1)NC(=O)[C@H](CC(N)=O)NC(=O)[C@H](CC(N)=O)NC(=O)[C@H](CO)NC(=O)[C@H](CO)NC(=O)[C@H](CCC(=O)O)NC(=O)[C@@H](NC(=O)[C@H](CC(C)C)NC(=O)[C@H](Cc1ccccc1)NC(=O)[C@H](CC(N)=O)NC(=O)[C@H](C)NC(=O)[C@H](CC(C)C)NC(=O)[C@H](CCCNC(=N)N)NC(=O)[C@H](CCC(N)=O)NC(=O)[C@@H](NC(=O)[C@H](C)NC(=O)[C@@H]1CSSC[C@H](NC(=O)[C@@H](N)CCC(=O)O)C(=O)N[C@@H](CCCCNC(=O)CCCCCCCCCCCCCCCCC(=O)O)C(=O)N[C@@H]([C@@H](C)O)C(=O)N[C@@H](C)C(=O)N[C@@H]([C@@H](C)O)C(=O)N1)[C@@H](C)O)C(C)C)C(=O)N[C@@H](CC(C)C)C(=O)N1CCC[C@H]1C(=O)N1CCC[C@H]1C(=O)N[C@H](C(=O)N[C@@H](CC(N)=O)C(=O)N[C@H](C(=O)NCC(=O)N[C@@H](CO)C(=O)N[C@@H](CC(N)=O)C(=O)N[C@H](C(=O)N[C@@H](Cc1ccc(O)cc1)C(N)=O)[C@@H](C)O)C(C)C)[C@@H](C)O [Example 29, N-epsilon3-(17-carboxyheptanoyl)-[Glu1,Lys3,Glu18]-pramlintide (1-37)] (H-ECK(C18 diacid)TATCATQRLANFLVESSNNFGPILPPTNVGSNTY-NH2; disulfide 2-7; N-terminus assumed) | 0.03 nM |
